Chains of the proteins cited; added tags and fusions are not shown. Lines headed by an entry give the natural chain unless they say otherwise; changes in a name come on top.
UniProt P18054: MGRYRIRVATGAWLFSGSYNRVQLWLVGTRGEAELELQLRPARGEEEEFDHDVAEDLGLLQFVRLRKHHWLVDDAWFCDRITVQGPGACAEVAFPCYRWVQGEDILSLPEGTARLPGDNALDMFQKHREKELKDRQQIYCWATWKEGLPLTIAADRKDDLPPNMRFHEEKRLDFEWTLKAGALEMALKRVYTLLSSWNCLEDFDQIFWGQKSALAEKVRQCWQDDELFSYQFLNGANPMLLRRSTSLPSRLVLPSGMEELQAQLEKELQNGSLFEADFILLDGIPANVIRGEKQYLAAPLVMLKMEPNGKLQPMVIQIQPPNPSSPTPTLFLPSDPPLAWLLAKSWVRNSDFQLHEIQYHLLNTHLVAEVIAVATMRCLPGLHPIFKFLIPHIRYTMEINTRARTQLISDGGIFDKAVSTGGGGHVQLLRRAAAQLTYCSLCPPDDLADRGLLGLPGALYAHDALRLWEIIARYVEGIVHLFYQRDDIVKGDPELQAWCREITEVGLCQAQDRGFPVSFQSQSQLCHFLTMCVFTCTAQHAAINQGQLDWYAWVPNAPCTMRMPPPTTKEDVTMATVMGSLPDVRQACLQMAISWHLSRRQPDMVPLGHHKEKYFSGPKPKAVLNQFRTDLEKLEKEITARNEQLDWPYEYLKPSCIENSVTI

About 6,100 (1.1%) of roughly 580,000 compounds were called active. Inconclusive results, whose numbers are uncertain, are shown with a selection of clear calls. Calls follow the shape of the dose curve; as a rule, active = well fitted inhibition curve with a large enough effect; inconclusive = small, poorly fitted or top-dose-only effect, or another doubt; inactive = no such curve, though single readings can be large or run the other way. Potencies beside an inconclusive call are fits to weak or partial responses and may not hold up.
These compounds were tested against Polyunsaturated fatty acid lipoxygenase ALOX12 (Homo sapiens) (UniProt P18054) (assay: Primary qHTS assay for inhibitors of human arachidonate 12S-lipoxygenase (ALOX12): Round 2). Conditions: purified 12hLO, xylenol orange hydroperoxide absorbance; activity change, negative = inhibition: at 108 µM (top of the series) unless noted.
In short: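 Purified human 12hLO at 150 nM in 25 mM Hepes, 0.01% Triton X-100, pH 7.0, preincubated 15 min at room temperature with compound. Reaction started with 40 uM arachidonic acid, 30 min at room temperature. Hydroperoxide measured by Fe-xylenol orange, 573/405 nm absorbance ratio.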
In the case of CCc1c(-c2ccc(Br)cc2)ncn1Cc1cccc(-c2ccccc2)c1, the Potency is reported as inconclusive: 0.251 µM [inhibitor, single point].
For Cc1ccc(NC(=O)CN2C(=O)CCn3nc(-c4cccn4C)cc32)c(Cl)c1, the Potency was inconclusive: 28.2 µM [inhibitor, partial curve, poor fit].
In the case of CCc1nc(OCc2ccco2)c2sc3nc4c(cc3c2n1)COC(C)(C)C4, the Potency is reported as inconclusive: 2.24 µM [inhibitor, full curve, poor fit].
For O=C(NC1CCCCC1)c1ccc(CS(=O)(=O)c2ccc(Cl)cc2)o1, the Potency was inconclusive: 44.7 µM [inhibitor, partial curve, poor fit].
For Cc1ccccc1CN1C(=O)CS/C1=N/N=C/c1ccco1, the Potency was active: 39.8 µM.
In the case of Cn1ncc2c(c(SCc3ccc(Cl)cc3Cl)nn2C)c1=O, the Potency is reported as inconclusive: 44.7 µM [inhibitor, partial curve, poor fit].
For COc1ccc(-n2c(=O)c(CCc3ccccc3)nc3cnc(OC)nc32)cc1, the Potency was inconclusive: 22.4 µM [inhibitor, partial curve, poor fit].
Cc1ccc(COC(=O)c2nn(C)c(=O)c3ccccc23)cc1 was tested, and the Potency was “inactive”.
In the case of CC1=NN(c2ccc(C)c(C)c2)C(=O)/C1=C/c1ccc2c(c1)n(C)c(=O)n2C, the “activity change, negative = inhibition” value is reported as inactive: -10.4%.
CC(C(=O)OCc1nnc(-c2ccccc2)o1)N1C(=O)c2ccccc2C1=O (configuration not stated) was tested, and the Potency was inconclusive: 0.355 µM [inhibitor, full curve, poor fit].
CCOc1cc(/C=N/NC(=O)c2nnn(-c3nonc3N)c2C)ccc1OCc1ccc(C)cc1 was tested, and the Potency was inconclusive: 158 µM [inhibitor, partial curve, poor fit].
With CCNC(=O)C1CCN(S(=O)(=O)c2ccc(F)cc2)CC1 the “activity change, negative = inhibition” value was inactive: 0%.
In the case of COc1ccc(NC(=O)c2ccc(NC(=O)c3ccc4ccccc4n3)cc2)cc1, the Potency is reported as inconclusive: 25.1 µM [inhibitor, partial curve, poor fit].
With COc1ccc(S(=O)(=O)N2CCCCC2)cc1NC(=O)c1nn(C(C)C)c(=O)c2ccccc12 the “activity change, negative = inhibition” value was inactive: 6.17%.
In the case of O=c1oc2cc(OS(=O)(=O)c3ccccc3)ccc2cc1-c1ccccc1, the “activity change, negative = inhibition” value is reported as inactive: 11%.
With Cc1nnc(NC(=O)CSc2nnc3c(n2)[nH]c2ccccc23)s1 the Potency was inconclusive: 8.91 µM [inhibitor, full curve, poor fit].
With CC(=O)CSc1nc2ccc(Nc3nc(N4CCOCC4)nc(N4CCOCC4)n3)cc2s1 the “activity change, negative = inhibition” value was inactive: 3.89%.
With Cc1cccc(Nc2nc(N[C@@H]3CCCC[C@H]3N)ncc2C(N)=O)c1 the Potency was inconclusive: 1.53 µM [inhibitor, full curve, poor fit].
For CC(C)n1ccc2c(NC(=O)C[C@H]3NC(=O)c4ccccc4NC3=O)cccc21, the “activity change, negative = inhibition” value was inactive: 2.66%.
For CC(C)(C)NC(=O)CSc1ncccc1-c1nc2ccccc2[nH]1, the Potency was inconclusive: 89.1 µM [inhibitor, partial curve, poor fit].
For Cc1cc(C)c(S(=O)(=O)/N=C2\C=C(NS(=O)(=O)c3ccccc3)C(=O)c3ccccc32)c(C)c1, the “activity change, negative = inhibition” value was inactive: -53.9%.
With O=C1NC(=S)NC1=Cc1ccc(O)cc1 the Potency was inconclusive: 44.7 µM [inhibitor, partial curve, poor fit].
With O=C(Cc1c[nH]c2ccccc12)OCc1cccc(Cl)c1 the Potency was inconclusive: 79.4 µM [inhibitor, partial curve, poor fit].
COc1ccc(C(=O)C(C)OC(=O)C2CCCN2)cc1 (configuration not stated) was tested, and the Potency was inconclusive: 31.6 µM [inhibitor, single point].
O=C(Cc1ccsc1)N1CCC(c2nc(C3CCOCC3)no2)C1 (configuration not stated) was tested, and the “activity change, negative = inhibition” value was inactive: 44.4%.
CCCOc1c(CN)cccc1OC was tested, and the Potency was inconclusive: 44.7 µM [inhibitor, partial curve, poor fit].
With CN=C(NC)c1ccc([N+](=O)[O-])cc1 the “activity change, negative = inhibition” value was inactive: -35.2%.
For CC(NC(=O)c1cccc(S(=O)(=O)N2CCN(Cc3ccccc3)CC2)c1)c1ccc(Br)cc1 (configuration not stated), the Potency was inconclusive: 100 µM [inhibitor, partial curve, poor fit].
Cc1ccc(F)cc1NC(=O)c1ccc(Cn2nc(N3CCN(c4ccccc4)CC3)ccc2=O)o1 was tested, and the “activity change, negative = inhibition” value was inactive: -15.1%.
With COc1ccc(N2CCN(CC(=O)Nc3c(C)cc(C)cc3C)CC2)cc1 the Potency was inconclusive: 141 µM [inhibitor, partial curve, poor fit].
With Cc1ccc(C(=O)N/C(=C\c2cccnc2)c2nc3ccccc3[nH]2)cc1 the “activity change, negative = inhibition” value was inactive: 12.6%.
O=[N+]([O-])c1ccccc1CSc1ccccn1 was tested, and the Potency was inconclusive: 141 µM [inhibitor, single point].
COc1cc(-c2csc(NC3CC3)n2)ccc1OC(F)F was tested, and the Potency was active: 25.1 µM.
COc1ccc(C(=S)N2CCOCC2)cc1OC(=O)c1cc(OC)c(OC)c(OC)c1 was tested, and the Potency was inconclusive: 22.4 µM [inhibitor, partial curve].
In the case of CCN(C[C@H]1N[C@@](C)(C(=O)OC)[C@H]2C(=O)N(Cc3ccccc3)C(=O)[C@@H]12)C(=O)Nc1ccc(Cl)cc1, the Potency is reported as inconclusive: 79.4 µM [inhibitor, partial curve, poor fit].
CC(=O)C1=C(C)N(Cc2ccc(F)cc2)C(=S)NC1c1ccccc1 (configuration not stated) was tested, and the Potency was inconclusive: 44.7 µM [inhibitor, partial curve].
Cn1cc(CN2C[C@@H](F)[C@@H](OCc3nc4ccc(C(F)(F)F)cc4[nH]3)C2)cn1 was tested, and the “activity change, negative = inhibition” value was inactive: 15.9% [at 176 µM].
O=S(=O)(NC1CC2CCC1C2)c1ccc(Br)s1 (configuration not stated) was tested, and the Potency was inconclusive: 126 µM [inhibitor, single point].
In the case of Cc1ccc(S(=O)(=O)N2CCN(Cc3ccccn3)CC2)cc1, the “activity change, negative = inhibition” value is reported as inactive: -12.9%.
For NNC(=S)Nc1cccc(Br)c1, the Potency was inconclusive: 10 µM [inhibitor, partial curve, poor fit].
In the case of Cc1ccc(S(=O)(=O)Nc2cc3c(C(=O)O)c(C)oc3c3ccccc23)c(C)c1, the Potency is reported as inconclusive: 44.7 µM [inhibitor, partial curve, poor fit].
In the case of O=C(CN1CCN(C(=O)c2nn(-c3ccccc3)c(=O)c3ccccc23)CC1)N1CCOCC1, the “activity change, negative = inhibition” value is reported as inactive: -22.7%.
In the case of CN(Cc1ccc2c(c1)OCCO2)C(=O)CN1C(=O)NC2(CCCCC2)C1=O, the “activity change, negative = inhibition” value is reported as inactive: -4.53%.
With Cc1cccc(OCc2nnc(SCC(=O)Nc3cccc(C(=O)N4CCOCC4)c3)o2)c1C the Potency was inconclusive: 50.1 µM [inhibitor, single point].
Cc1ccc2c(c1)sc[n+]2Cc1ccccc1 was tested, and the Potency was inconclusive: 3.16 µM [inhibitor, full curve].
COC(=O)c1cnn(-c2ccc(C(=O)Nc3ccc(OC(F)(F)F)cc3)cc2)c1N was tested, and the Potency was inconclusive: 112 µM [inhibitor, partial curve, poor fit].
With O=C(/C=C/c1ccc(-c2ccccc2Cl)o1)c1ccccc1 the Potency was active: 20 µM.
c1cncc(-c2nc(Sc3nnnn3C3CC3)c3ccccc3n2)c1 was tested, and the Potency was inconclusive: 100 µM [inhibitor, partial curve, poor fit].
Cc1csc(NC(=O)c2cccnc2Cl)n1 was tested, and the Potency was inconclusive: 112 µM [inhibitor, single point].
For OCC1(Cc2ccccc2)CCN(Cc2cnc(-c3ccc(Cl)cc3)nc2)CC1, the Potency was inconclusive: 35.5 µM [inhibitor, partial curve, poor fit].
In the case of COc1ccc(CNCC(=O)O)cc1, the Potency is reported as inconclusive: 0.447 µM [inhibitor, full curve, poor fit].
For C=CCSc1nnc(NC(=O)CSc2ccccn2)s1, the Potency was inconclusive: 126 µM [inhibitor, single point].
CN(CC(=O)NCC(c1ccccc1)N1CCCC1)S(=O)(=O)c1ccc(Cl)cc1 (configuration not stated) was tested, and the Potency was inconclusive: 141 µM [inhibitor, single point].
OC(CNC1CCCc2ccccc21)COc1c(Cl)cccc1Cl (configuration not stated) was tested, and the Potency was inconclusive: 2.51 µM [inhibitor, full curve].
In the case of CN(CC(=O)NC1CCCC1)S(=O)(=O)c1cccc(Cl)c1, the Potency is reported as inconclusive: 100 µM [inhibitor, partial curve, poor fit].
With CCN(CC)CCCNC(=O)C(=O)Nc1ccc2cc[nH]c2c1 the “activity change, negative = inhibition” value was inactive: 2.36%.
For Cn1c(=O)c2cc(NC(=S)NC3CCCCC3)ccc2n1Cc1ccc(Cl)cc1, the Potency was inconclusive: 44.7 µM [inhibitor, partial curve, poor fit].
Cc1ccc(CN(C(=O)c2ccco2)c2ccc(CC(=O)NCc3ccccc3)cc2)cc1 was tested, and the Potency was inconclusive: 12.6 µM [inhibitor, partial curve].
In the case of COc1ccc(N/N=C/c2c(C(=O)O)ccc3ccccc23)cc1, the Potency is reported as inconclusive: 44.7 µM [inhibitor, partial curve].
CCCN1CCC(=O)N([C@H](CSc2ccccc2)c2ccccc2)CC1 was tested, and the “activity change, negative = inhibition” value was inactive: -6.77%.
O=C(Nc1cccnc1)c1cc(Br)c(Br)s1 was tested, and the Potency was active: 20 µM.
With Cc1nnc2n(-c3ccccc3)c(=O)c3c4c(sc3n12)CC(C)CC4 (configuration not stated) the “activity change, negative = inhibition” value was inactive: -18.4%.
CCCCN(C(=O)c1oc2ccc(OCC)cc2c1C)c1c(N)n(CC(C)C)c(=O)[nH]c1=O was tested, and the Potency was inconclusive: 126 µM [inhibitor, partial curve, poor fit].
For NC(=S)N/N=C/c1ccccc1[N+](=O)[O-], the Potency was active: 35.5 µM.
CC(NC(=O)c1c2c(nc3ccccc13)C(=O)N(C1CCCCC1)C2)c1ccccc1 (configuration not stated) was tested, and the Potency was inconclusive: 112 µM [inhibitor, partial curve, poor fit].
With CC(C)[C@H](NS(=O)(=O)c1ccccc1)C(=O)OCC(=O)Nc1ccc2c(c1)OCO2 the Potency was inconclusive: 141 µM [inhibitor, partial curve, poor fit].
With Brc1ccc(CN2CCN(c3ccccn3)CC2)s1 the Potency was inconclusive: 0.501 µM [inhibitor, full curve, poor fit].
% is scaled to controls: 0 for no effect and ±100 for the full control effect; potency is read from the fitted curve at half-maximal effect.
